Changes are numbered by the printed parent chain. Results are given in words; binding and its absence hold for the method and conditions named. Some entries that bind do so weakly or less than the wild type.

Amino acid sequences for entries named in this document (tags omitted). Residues count along the entry.
UniProt P02769, residues 25-607: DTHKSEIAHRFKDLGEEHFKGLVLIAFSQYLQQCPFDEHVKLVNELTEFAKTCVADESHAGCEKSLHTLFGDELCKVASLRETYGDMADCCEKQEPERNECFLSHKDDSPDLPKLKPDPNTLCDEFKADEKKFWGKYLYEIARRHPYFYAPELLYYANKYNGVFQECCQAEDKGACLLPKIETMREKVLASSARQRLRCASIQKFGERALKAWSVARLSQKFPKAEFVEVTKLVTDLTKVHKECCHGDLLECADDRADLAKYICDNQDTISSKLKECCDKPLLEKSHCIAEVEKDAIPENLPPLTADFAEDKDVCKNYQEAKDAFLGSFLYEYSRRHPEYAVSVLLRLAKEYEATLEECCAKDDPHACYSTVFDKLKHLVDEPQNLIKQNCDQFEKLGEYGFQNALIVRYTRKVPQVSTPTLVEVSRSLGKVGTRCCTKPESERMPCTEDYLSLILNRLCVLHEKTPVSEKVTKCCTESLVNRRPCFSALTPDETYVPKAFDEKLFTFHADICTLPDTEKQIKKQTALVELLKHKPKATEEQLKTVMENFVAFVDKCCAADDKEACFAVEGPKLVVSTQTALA

This passage reports binding results from patent CN111057148A.

Test [1] has as its target 牛血清白蛋白(BSA) (牛 (bovine)) (UniProt P02769). In words: ELISA, BSA coated on plate, human Fc fusion VHH, HRP anti-human Fc detection, OD450.
The target is the same in test [2]. In words: ELISA, BSA coated 100 ng/100 µL, E. coli-expressed VHH, HRP anti-HA detection, OD450.
Test [3] concerns the target 生物素标记的BSA蛋白(BSA-Biotin) (牛 (bovine)) (UniProt P02769). In words: ELISA of crude periplasmic extract on BSA-Biotin captured by neutravidin; positive = OD450 more than 5x control well.

B1: 2D6的人源Fc融合重组单域抗体 (Fc fusion, 人源 (human), not shown: a dimerising Fc or GST; small tags and cut ends)
chain: QVQLQESGGGSVQTGGSLRLSCAASGNSDGAWSMGWFRQAPGKEREGVAALYVFTGITYYAGSVKGRFTISQDKAKNTVYLQMNSLKPEDTAMYYCAAGTAFPTLNRNKYNYWGQGTQVTVSS
B1: the binding result in test [1] is recorded as “binds”.

B2: 单域抗体1D10 (VHH, not shown: small tags and cut ends)
VHH: QVQLQESGGGSVQAGGSLRLSCAASGYTGSVNYMAWFRQAPGKEREGVAAIYGYGGSTYYADSVKGRFTISRDNAKNTVYLQMNSLIPEDTASYYCASDQSRRSWLSPLVPGKYSLWGQGTQVTVSS
Consider B2, for which the binding result in test [2] and in test [3] was “binds” each time.

B3: 单域抗体2D8 (VHH, not shown: small tags and cut ends)
VHH: B2 VHH with A23E, A40P, Y54G, S63A, L106F, S107P
Consider B3, for which the binding entry in test [2] and in test [3] was “binds” in each case.

B4: 单域抗体1B4 (VHH, not shown: small tags and cut ends)
VHH: QVQLQESGGGSVQAGGSLRLSCVASRYMGSTYYMAWFRQAPGKEREGVAAIYIASGNSGSTYYADSVKGRFTISRDNAKNTVYLQMNSLIPEDTASYYCASDLSRRNWLPPLVPGKYSLWGQGTQVTVSS
Consider B4, for which the binding result in test [2] and in test [3] was “binds” in each case.

B5: 单域抗体1C6 (VHH, not shown: small tags and cut ends)
VHH: QVQLQESGGGSVQAGGSLRLSCVVSGYAYSTNYMGWFRQAPGKEREGVAVIYTTVGTTYYADSVKGRFTISQDNAKNTVSLQMNSLQPEDTAMYYCAAVRRPWRLDSLDPSSFRYWGQGTQVTVSS
With B5, the binding entry in test [2] and in test [3] was “binds” in each case.

B6: 单域抗体1D6 (VHH, not shown: small tags and cut ends)
VHH: B5 VHH with S85G
For the molecule B6, the binding entry in test [2] and in test [3] was “binds” throughout.
